The whole screen tested about 340,000 compounds, of which about 6,200 (1.8%) were called active. Inconclusive results, whose numbers are uncertain, are shown with a selection of clear calls. Calls follow the shape of the dose curve; as a rule, active = well fitted activation curve with a large enough effect; inconclusive = small, poorly fitted or top-dose-only effect; inactive = no such curve, though single readings can be large or run the other way. Potencies beside an inconclusive call are fits to weak or partial responses and may not hold up.
Experiment: A quantitative high throughput screen for small molecules that induce DNA re-replication in SW480 colon adenocarcinoma cells. Also: nearly all actives have a fitted effect of over 55% in size. As to re-replication activation: % of control where 0% means no effect.
Settings: Hoechst DNA content imaging, 48 h; re-replication activation: at 46.1 µM (top of the series) unless noted
Summary of the method: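 SW480 cells exposed to compounds for 48 hr at 37 C, 5% CO2, then Hoechst-stained 40 min. Nuclear DNA content imaged by fluorescence scanning (405 nm excitation, 500-530 nm emission); re-replication scored as increased high-intensity nuclei.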
Potency is read from the fitted curve at half-maximal effect.

SMILES | Potency | re-replication activation
CCCCCCCC(=O)Nc1ccc(C(=O)N/N=C/c2cccc([N+](=O)[O-])c2)cc1 | inconclusive: 6.31 µM [activator, partial curve, poor fit] | –
C/C(=N\NC(=O)c1cccc(Br)c1)c1ccccn1 | inconclusive: 0.651 µM [activator, full curve, poor fit] | –
COc1cccc(C2C=C(c3cccs3)Nc3ncnn32)c1OC (centres undefined) | – | inactive: -5.39%
CCC(=O)c1ccc(OCC(=O)NCCc2ccccn2)cc1 | inconclusive: 1.16 µM [activator, single point] | –
Cc1cccn2c(=O)c3cc(C(=O)NCC4CCCO4)c(=N)n(C4CCCCC4)c3nc12 (centres undefined) | active: 18.4 µM | –
C[C@@H]1[C@@H](Sc2ccccc2)CC(=O)O[C@@H]1c1ccc(-c2ccccc2)cc1 | – | inactive: 28.3%
O=C(CSc1ccc2ccccc2n1)N/N=C/c1ccccc1O | inconclusive: 29.1 µM [activator, single point] | –
Cc1ccc2[nH]c3c(NCc4ccco4)ncnc3c2c1 | – | inactive: 7.59%
C=CCNC(=S)N/N=C(\C)c1ccc(-n2ccnc2)cc1 | inconclusive: 8.2 µM [activator, partial curve, poor fit] | –
Cc1cccc(C)c1Nc1c(-c2ccccc2O)nc2ncccn12 | inconclusive: 0.206 µM [activator, full curve, poor fit] | –
C=CCN(Cc1cc(OC)ccc1OC)C(=O)c1cc2ccc(OC)cc2[nH]1 | inconclusive: 18.4 µM [activator, single point] | –
COC(=O)Cc1nc2ccccc2[nH]1 | inconclusive: 0.82 µM [activator, full curve] | –
CCSc1nc2c(c(=O)n1Cc1ccccc1)SC(C)C2 (centres undefined) | – | inactive: -17%
O=C(/C=C\Nc1ccccc1Br)c1ccc2c(c1)OCO2 | – | inactive: 0.0573%
CC1=C(C(=O)Nc2ccccc2F)C(c2ccsc2)C2=C(CC(C)(C)CC2=O)N1 (centres undefined) | inconclusive: 23.1 µM [activator, single point] | –
COc1ccc(C(=O)NNC(=O)c2cc(C)[nH]n2)cc1 | inconclusive: 4.11 µM [activator, single point] | –
O=C(Oc1ccc2c(c1)OCO2)c1cc2c(s1)CCC2 | inconclusive: 2.31 µM [activator, partial curve] | –
CCCC12CN3CCN(CC(C3)/C1=N\NC(=O)c1ccccc1Cl)C2 | inconclusive: 9.2 µM [activator, partial curve, poor fit] | –
COc1ccc(N2CCN(C(=O)c3cc(-c4ccc(F)cc4)[nH]c3C)CC2)cc1 | – | inactive: -32.3%
CC(C)c1ccc(C2c3[nH]c4ccccc4c3C[C@H]3C(=O)N(c4ccccc4C(=O)N4CCC[C@H]4C(=O)O)C(=O)N23)cc1 (some centres undefined) | – | inactive: 4.69%
CCOC(=O)N1CCC(NC(=O)c2ccc3c(c2)N(C)C(=O)/C(=C/c2cccc(OC)c2)S3)CC1 | – | inactive: 1.96%
O=C(CCN1C(=O)S/C(=C\c2ccccc2)C1=O)N1CCOCC1 | – | inactive: -3.87%
N#C/C(=C\c1cccnc1)c1ccccc1[N+](=O)[O-] | inconclusive: 29.1 µM [activator, single point] | –

SMILES | Potency | re-replication activation
COc1cccc(C(=O)NC(=S)N2c3ccccc3CC2C)c1OC (centres undefined) | – | inactive: 8.3%
COc1cc(C(=O)Nc2nc3ccccc3s2)ccc1OCc1c(C)noc1C | active: 16.4 µM | –
O=[N+]([O-])c1cnc(Sc2ccncn2)s1 | inconclusive: 5.8 µM [activator, single point] | –
COc1ccc(-c2oc3ccc(N4CCOCC4)cc3c2C#CC2(O)CCCCC2)cc1 | inconclusive: 29.1 µM [activator, single point] | –
Cc1cccc(N2CCN(C(=O)c3ccnn3C)CC2)c1C | – | inactive: -2.03%
Cn1c(CN2CCCCC2)nc2cc(NC(=O)c3ccc(Cl)cc3)ccc21 | inconclusive: 23.1 µM [activator, single point] | –
COc1ccc(/C=N/Nc2nnc(C)n2N)cc1OC(C)=O | inconclusive: 16.4 µM [activator, single point] | –
Cc1ccc2[nH]c(=O)c(CN(Cc3cccnc3)C(=O)c3ccncc3)cc2c1 | inconclusive: 18.4 µM [activator, single point] | –
S=C(NCC1CCCO1)Nc1ccc(Nc2ccccc2)cc1 (centres undefined) | inconclusive: 23.1 µM [activator, partial curve, poor fit] | –
S=C(NNC(=S)Nc1ccccc1)Nc1ccccc1 | – | inactive: -10.7%
CC[C@]12c3[nH]c4ccc(Cl)cc4c3CCN1C(=O)[C@@H](CC(=O)NCCCOC)C[C@@H]2C(=O)N1CCN(C(=O)c2ccco2)CC1 | inconclusive: 2.91 µM [activator, single point] | –
CC(C)C[C@H](NC(=O)c1nc[nH]c1C(=O)N[C@@H](CC(C)C)C(=O)OC(C)(C)C)C(=O)OC(C)(C)C | inconclusive: 18.4 µM [activator, single point] | –
O=C1[C@@H]2Cc3c([nH]c4ccccc34)C(c3ccccc3)N2C(=O)CN1C1CC1 (some centres undefined) | inconclusive: 29.1 µM [activator, single point] | –
COc1ccc(C)cc1Nc1n[n+](-c2ccccc2)c(-c2c(Cl)cccc2Cl)s1 | inconclusive: 2.91 µM [activator, single point] | –
CC(C)C(NC(=O)C(c1ccccc1)c1ccccc1)c1nc2ccccc2[nH]1 (centres undefined) | inconclusive: 29.1 µM [activator, single point] | –
Nc1n[nH]c2cc(=O)n(-c3cccc(C(F)(F)F)c3)nc12 | active: 7.31 µM | –
O=C(O)c1ccc(/C=N/N2CCN(Cc3ccccc3)CC2)cc1 | inconclusive: 29.1 µM [activator, single point] | –
CCCCOc1ccc(C(=O)N2CCCC2)cc1 | – | inactive: -0.56%
COc1ccccc1CCC(=O)Nc1ncc(C)s1 | inconclusive: 20.6 µM [activator, single point] | –
COc1ccc(O)c(/C=N/NC(=O)c2cccc(N3CCCC3=O)c2)c1 | inconclusive: 2.06 µM [activator, partial curve, poor fit] | –
Cc1ccc(NC(=O)c2c(C)nc(Nc3nc4ccccc4o3)nc2C)cc1 | inconclusive: 29.1 µM [activator, partial curve, poor fit] | –
COc1ccc(CCN2CC(C(=O)NCc3cc(C(C)C)no3)CCC2=O)cc1 (centres undefined) | – | inactive: -11.5%
CCS(=O)(=O)n1nc(-c2ccco2)nc1SC | inconclusive: 23.1 µM [activator, partial curve, poor fit] | –

Quoted at random: four records from the list.
SMILES | Potency | re-replication activation
CCCCOc1ccc(C(=O)N2CCCC2)cc1 | – | inactive: -0.56%
COc1cccc(C(=O)NC(=S)N2c3ccccc3CC2C)c1OC (centres undefined) | – | inactive: 8.3%
CC(C)C[C@H](NC(=O)c1nc[nH]c1C(=O)N[C@@H](CC(C)C)C(=O)OC(C)(C)C)C(=O)OC(C)(C)C | inconclusive: 18.4 µM [activator, single point] | –
Cc1ccc2[nH]c(=O)c(CN(Cc3cccnc3)C(=O)c3ccncc3)cc2c1 | inconclusive: 18.4 µM [activator, single point] | –

Of the compounds above, these have a COOH group.
SMILES | Potency | re-replication activation
CC(C)c1ccc(C2c3[nH]c4ccccc4c3C[C@H]3C(=O)N(c4ccccc4C(=O)N4CCC[C@H]4C(=O)O)C(=O)N23)cc1 (some centres undefined) | – | inactive: 4.69%
O=C(O)c1ccc(/C=N/N2CCN(Cc3ccccc3)CC2)cc1 | inconclusive: 29.1 µM [activator, single point] | –

Continuation:

SMILES | Potency | re-replication activation
COC(=O)c1ccc(OC(=O)/C=C/c2ccco2)cc1 | inconclusive: 29.1 µM [activator, single point] | –
CCn1c(SCC(=O)N2CCCc3ccccc32)nc2c(c1=O)SC(C)C2 (centres undefined) | inconclusive: 23.1 µM [activator, single point] | –
O=C(N/N=C/c1c[nH]c2ccccc12)c1ccc2c(c1)OCCO2 | inconclusive: 16.4 µM [activator, single point] | –
COc1ccc(/C=C(/NC(=O)c2ccccc2)C(=O)N/N=C/c2cccs2)cc1OC | – | inactive: -2.88%
Cc1cc(C)c(S(=O)(=O)N2CCN(C(=O)N3CCCCC3)CC2)c(C)c1 | inconclusive: 0.184 µM [activator, full curve] | –
COc1cc(NC(=O)CCCC(=O)OCC(F)(F)C(F)F)nc(OC)n1 | inconclusive: 29.1 µM [activator, single point] | –
CCOC(=O)N1CCN(C(=O)c2ccc3c(c2)NC(=O)/C(=C/c2ccccc2)S3)CC1 | inconclusive: 16.4 µM [activator, single point] | –
O=[N+]([O-])c1ccccc1NC(=S)N/N=C/c1ccc(O)c(O)c1 | inconclusive: 20.6 µM [activator, single point] | –
O=C(Nc1ccncc1)C1CC(=O)N(Cc2ccccc2)C1 (centres undefined) | – | inactive: -1.68%
O=C(COC(=O)CNC(=O)C1CCCCC1)Nc1ccc2c(c1)OCCO2 | – | inactive: -2.98%
Cc1cc(C)c(C)c(OC(=O)c2sc(Cl)nc2C)c1 | inconclusive: 25.9 µM [activator, single point] | –
NC(=O)COc1ccccc1/C=C1/SC(=O)N(CC(=O)N2CCc3ccccc3C2)C1=O | – | inactive: -1.49%
O=C(CN1c2ccccc2Sc2ccccc21)NNC(=O)Nc1cccc(Cl)c1 | inconclusive: 20.6 µM [activator, single point] | –
COc1ccc(OCc2cc(C(=O)N3C[C@@H](C)O[C@@H](C)C3)no2)c(Cl)c1 | inconclusive: 29.1 µM [activator, single point] | –
CC(=O)c1ccc2c(c1)C1C=CCC1C(c1cc3c(cc1Br)OCO3)N2 (centres undefined) | active: 11.6 µM | –
OC(CN(Cc1ccccc1)Cc1ccccc1)c1ccccc1 (centres undefined) | inconclusive: 29.1 µM [activator, single point] | –
Cc1nnc2n1N=CC=C(c1ccccc1)S2 | – | inactive: -17.3%
O=C(Nc1ccc(N2CCN(C(=O)c3cccs3)CC2)cc1)c1ccccc1F | inconclusive: 16.4 µM [activator, single point] | –
COC(=O)C1=CN(c2ccc(Cl)cc2)C=C(C(=O)OC)C1c1ccc([N+](=O)[O-])cc1 | inconclusive: 23.1 µM [activator, partial curve, poor fit] | –
O=C(NCCOc1ccccc1F)C1CC(=O)N(Cc2ccccc2)C1 (centres undefined) | – | inactive: -0.734%
C=CCN(CC=C)S(=O)(=O)c1ccc2nc(NC(=O)C(C)C)sc2c1 | inconclusive: 16.4 µM [activator, single point] | –
CC(=O)[C@H]1CC[C@H]2[C@@H]3CCC4=CC(=O)CC[C@]4(C)[C@H]3[C@H](O)C[C@]12C | inconclusive: 0.631 µM [activator, single point] | –
COC(=O)C1=C(C)NC(C)=C(C(=O)OC)C1C(=O)OCc1nnc(-c2ccccc2Cl)o1 | – | inactive: 2.41%

Reference: PubChem BioAssay AID624297 (National Center for Advancing Translational Sciences (NCATS), 2012)
